## Drug screen on melanoma cell lines: apoptosis marker

Values as published with doi:10.1371/journal.pone.0140310, rounded.

Every entry is a combination with ABT-263 at 2 µM: CC1(C)CCC(c2ccc(Cl)cc2)=C(CN2CCN(c3ccc(C(=O)NS(=O)(=O)c4ccc(N[C@H](CCN5CCOCC5)CSc5ccccc5)c(S(=O)(=O)C(F)(F)F)c4)cc3)CC2)C1

Drugs:
BI-D1870 (1 µM): CC(C)CCN1c2nc(Nc3cc(F)c(O)c(F)c3)ncc2N(C)C(=O)C1C (stereo not given)
SU6656 (2 µM): CN(C)S(=O)(=O)c1ccc2c(c1)/C(=C/c1cc3c([nH]1)CCCC3)C(=O)N2
nilotinib (1 µM): Cc1cn(-c2cc(NC(=O)c3ccc(C)c(Nc4nccc(-c5cccnc5)n4)c3)cc(C(F)(F)F)c2)cn1
sorafenib (2 µM): CNC(=O)c1cc(Oc2ccc(NC(=O)Nc3ccc(Cl)c(C(F)(F)F)c3)cc2)ccn1
GW9662 (10 µM): O=C(Nc1ccccc1)c1cc([N+](=O)[O-])ccc1Cl
PD173074 (0.5 µM): CCN(CC)CCCCNc1ncc2cc(-c3cc(OC)cc(OC)c3)c(NC(=O)NC(C)(C)C)nc2n1
GW441756 (2 µM): Cn1cc(/C=C2\C(=O)Nc3cccnc32)c2ccccc21
lenalidomide (5 µM): Nc1cccc2c1CN(C1CCC(=O)NC1=O)C2=O (stereo not given)
fludarabine (1 µM): Nc1nc(F)nc2c1ncn2[C@@H]1O[C@H](CO)[C@@H](O)[C@@H]1O
vismodegib (5 µM): CS(=O)(=O)c1ccc(C(=O)Nc2ccc(Cl)c(-c3ccccn3)c2)c(Cl)c1
stibogluconate (10 µM): O=C(O)[C@@H]1[O][Sb](=[O])([O][Sb]2(=[O])[O][C@H]([C@H](O)CO)[C@H](O)[C@H](C(=O)O)[O]2)[O][C@H]([C@H](O)CO)[C@@H]1O (stereo not given in full)
L-779450 (1 µM): Oc1cc(-c2nc(-c3ccccc3)[nH]c2-c2ccncc2)ccc1Cl
lapatinib (4 µM): CS(=O)(=O)CCNCc1ccc(-c2ccc3ncnc(Nc4ccc(OCc5cccc(F)c5)c(Cl)c4)c3c2)o1
STA-4783 (0.03 µM): CN(NC(=O)CC(=O)NN(C)C(=S)c1ccccc1)C(=S)c1ccccc1
NVP-BEZ235 (0.02 µM): Cn1c(=O)n(-c2ccc(C(C)(C)C#N)cc2)c2c3cc(-c4cnc5ccccc5c4)ccc3ncc21
enzastaurin (4 µM): Cn1cc(C2=C(c3cn(C4CCN(Cc5ccccn5)CC4)c4ccccc34)C(=O)NC2=O)c2ccccc21
BI-78D3 (1 µM): O=c1[nH]nc(Sc2ncc([N+](=O)[O-])s2)n1-c1ccc2c(c1)OCCO2
darinaparsin (2 µM): C[As](C)SC[C@H](NC(=O)CC[C@H](N)C(=O)O)C(=O)NCC(=O)O
JZL184 (5 µM): O=C(Oc1ccc([N+](=O)[O-])cc1)N1CCC(C(O)(c2ccc3c(c2)OCO3)c2ccc3c(c2)OCO3)CC1
ENMD-2076 (0.2 µM): Cc1cc(Nc2cc(N3CCN(C)CC3)nc(/C=C/c3ccccc3)n2)n[nH]1
MK-2206 (2 µM): NC1(c2ccc(-c3nc4ccn5c(=O)[nH]nc5c4cc3-c3ccccc3)cc2)CCC1
embelin (6 µM): CCCCCCCCCCCC1=C(O)C(=O)C=C(O)C1=O
tanespimycin (0.01 µM): C=CCNC1=C2C[C@@H](C)C[C@H](OC)[C@H](O)[C@@H](C)/C=C(\C)[C@H](OC(N)=O)[C@@H](OC)/C=C\C=C(/C)C(=O)NC(=CC1=O)C2=O
fingolimod (10 µM): CCCCCCCCc1ccc(CCC(N)(CO)CO)cc1
palbociclib (0.2 µM): CC(=O)c1c(C)c2cnc(Nc3ccc(N4CCNCC4)cn3)nc2n(C2CCCC2)c1=O
veliparib (7 µM): C[C@]1(c2nc3c(C(N)=O)cccc3[nH]2)CCCN1
perifosine (2 µM): CCCCCCCCCCCCCCCCCCOP(=O)([O-])OC1CC[N+](C)(C)CC1
tamatinib (2 µM): COc1cc(Nc2ncc(F)c(Nc3ccc4c(n3)NC(=O)C(C)(C)O4)n2)cc(OC)c1OC
nutlin-3 (0.5 µM): COc1ccc(C2=N[C@@H](c3ccc(Cl)cc3)[C@@H](c3ccc(Cl)cc3)N2C(=O)N2CCNC(=O)C2)c(OC(C)C)c1
KU-0063794 (0.1 µM): COc1ccc(-c2ccc3c(N4CCOCC4)nc(N4C[C@@H](C)O[C@@H](C)C4)nc3n2)cc1CO
VX-702 (2 µM): NC(=O)c1ccc(N(C(N)=O)c2c(F)cccc2F)nc1-c1ccc(F)cc1F
selumetinib (0.075 µM): Cn1cnc2c(F)c(Nc3ccc(Br)cc3Cl)c(C(=O)NOCCO)cc21
cisplatin (8 µM): N.N.[Cl][Pt][Cl]
XAV939 (10 µM): Oc1nc(-c2ccc(C(F)(F)F)cc2)nc2c1CSCC2
Src-I1 (10 µM): COc1cc2ncnc(Nc3ccc(Oc4ccccc4)cc3)c2cc1OC
dovitinib (0.5 µM): CN1CCN(c2ccc3nc(-c4c(N)c5c(F)cccc5[nH]c4=O)[nH]c3c2)CC1

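Human melanoma cell lines in 1,536-well plates were treated with two drugs together for 72 h, then fixed, stained and imaged. Each value is the cleaved-PARP-positive fraction of nuclei relative to DMSO-treated wells, in %, so that 100 equals the control and higher values mean more apoptosis. Every drug was used at one fixed concentration, the higher of two screened. The file gives one value for each pair and line, without errors, so small differences may be noise. Basal and induced levels differ widely between cell lines.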 This is part of the screen, not chosen by result.

Results for tanespimycin are RPMI-7951: 1470; COLO 829: 216; UACC-62: 468; SK-MEL-30: 449; RVH-421: 212. Results for KU-0063794 are RPMI-7951: 580; COLO 829: 141; UACC-62: 376; SK-MEL-30: 368; RVH-421: 129. With perifosine the screen read RPMI-7951: 1020; COLO 829: 99.3; UACC-62: 207; SK-MEL-30: 323; RVH-421: 219. Results for enzastaurin are RPMI-7951: 232; COLO 829: 453; UACC-62: 166; SK-MEL-30: 321; RVH-421: 4020. Results for embelin are RPMI-7951: 295; COLO 829: 113; UACC-62: 187; SK-MEL-30: 164; RVH-421: 94.9. With fludarabine the screen read RPMI-7951: 196; COLO 829: 48.2; UACC-62: 170; SK-MEL-30: 981; RVH-421: 74.8.

For tamatinib the values were RPMI-7951: 298; COLO 829: 185; UACC-62: 167; SK-MEL-30: 203; RVH-421: 67.1. PD173074 gave RPMI-7951: 442; COLO 829: 51.0; UACC-62: 224; SK-MEL-30: 356; RVH-421: 96.2. With BI-D1870 the screen read RPMI-7951: 162; COLO 829: 124; UACC-62: 85.1; SK-MEL-30: 171; RVH-421: 704. With nutlin-3 the screen read RPMI-7951: 326; COLO 829: 136; UACC-62: 288; SK-MEL-30: 261; RVH-421: 129. With GW9662 the screen read RPMI-7951: 508; COLO 829: 196; UACC-62: 362; SK-MEL-30: 458; RVH-421: 150. For selumetinib the values were RPMI-7951: 78.4; COLO 829: 131; UACC-62: 411; SK-MEL-30: 1020; RVH-421: 159.

With GW441756 the screen read RPMI-7951: 138; COLO 829: 156; UACC-62: 259; SK-MEL-30: 199; RVH-421: 68.8. Results for nilotinib are RPMI-7951: 341; COLO 829: 223; UACC-62: 244; SK-MEL-30: 320; RVH-421: 308. With XAV939 the screen read RPMI-7951: 211; COLO 829: 94.0; UACC-62: 269; SK-MEL-30: 141; RVH-421: 101. With STA-4783 the screen read RPMI-7951: 526; COLO 829: 221; UACC-62: 218; SK-MEL-30: 353; RVH-421: 476. darinaparsin gave RPMI-7951: 343; COLO 829: 108; UACC-62: 225; SK-MEL-30: 251; RVH-421: 681. Results for palbociclib are RPMI-7951: 85.7; COLO 829: 126; UACC-62: 364; SK-MEL-30: 321; RVH-421: 159.

With veliparib the screen read RPMI-7951: 302; COLO 829: 269; UACC-62: 349; SK-MEL-30: 341; RVH-421: 156. For JZL184 the values were RPMI-7951: 112; COLO 829: 125; UACC-62: 86.1; SK-MEL-30: 222; RVH-421: 84.4. Results for Src-I1 are RPMI-7951: 950; COLO 829: 238; UACC-62: 509; SK-MEL-30: 243; RVH-421: 243. For NVP-BEZ235 the values were RPMI-7951: 309; COLO 829: 93.3; UACC-62: 250; SK-MEL-30: 360; RVH-421: 88.8. VX-702 gave RPMI-7951: 85.9; COLO 829: 124; UACC-62: 189; SK-MEL-30: 732; RVH-421: 89.2. Results for vismodegib are RPMI-7951: 602; COLO 829: 63.5; UACC-62: 275; SK-MEL-30: 434; RVH-421: 89.9.

For MK-2206 the values were RPMI-7951: 166; COLO 829: 106; UACC-62: 165; SK-MEL-30: 614; RVH-421: 179. With BI-78D3 the screen read RPMI-7951: 98.0; COLO 829: 174; UACC-62: 313; SK-MEL-30: 274; RVH-421: 250. stibogluconate gave RPMI-7951: 219; COLO 829: 109; UACC-62: 219; SK-MEL-30: 808; RVH-421: 182. Results for lapatinib are RPMI-7951: 374; COLO 829: 362; UACC-62: 376; SK-MEL-30: 497; RVH-421: 338. For SU6656 the values were RPMI-7951: 447; COLO 829: 153; UACC-62: 132; SK-MEL-30: 418; RVH-421: 195. L-779450 gave RPMI-7951: 456; COLO 829: 329; UACC-62: 681; SK-MEL-30: 223; RVH-421: 442.

For sorafenib the values were RPMI-7951: 194; COLO 829: 113; UACC-62: 245; SK-MEL-30: 417; RVH-421: 145. For ENMD-2076 the values were RPMI-7951: 138; COLO 829: 68.8; UACC-62: 220; SK-MEL-30: 447; RVH-421: 133. cisplatin gave RPMI-7951: 531; COLO 829: 105; UACC-62: 316; SK-MEL-30: 591; RVH-421: 105. Results for dovitinib are RPMI-7951: 124; COLO 829: 279; UACC-62: 191; SK-MEL-30: 552; RVH-421: 119. Results for fingolimod are RPMI-7951: 3140; COLO 829: 1340; UACC-62: 71.2; SK-MEL-30: 1280; RVH-421: 1390. With lenalidomide the screen read RPMI-7951: 213; COLO 829: 194; UACC-62: 229; SK-MEL-30: 332; RVH-421: 153.

Repeated from the top, 2 entries:

Partner,RPMI-7951,COLO 829,UACC-62,SK-MEL-30,RVH-421
tanespimycin,1470,216,468,449,212
KU-0063794,580,141,376,368,129